Our source for the cell number change and AC50 values is PubChem BioAssay AID2685 (National Center for Advancing Translational Sciences (NCATS), 2010).

Some of the results follow. The main result of the screen is listed elsewhere. These columns were measured beside it and carry no call. The list favours compounds with an active or inconclusive main result. Potencies come from curve fits of mixed quality, noted in brackets.

A word on the AC50: it is the concentration at which the activity in the assay is half-maximal.

This test is described as follows: qHTS Assay for Lipid Storage Modulators in Drosophila S3 Cells.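 As to cell number change: cells counted by Cell Tracker Red CMTPX staining in the red channel.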 Conditions: BODIPY lipid droplet fluorescence, 18-24 h; for cell number change: measured here: cell count max response, cells fed with added oleic acid. In a few lines:
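Laser-scanning cytometry quantifies lipid droplet accumulation (500–530 nm total intensity; droplet/cell object ratio) in oleic acid-fed (400 uM added) Drosophila S3 cells treated with a concentration series. 20 uM Triacsin C defined 100% inhibition.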
(In general: Quantitative high-throughput screening tests each substance at several concentrations.)

[1] abbreviates: measured here: lipid fluorescence (Fed channel) AC50, cells fed with added oleic acid.
The mark [2] stands for this setting: measured here: cell number channel AC50, cells fed with added oleic acid.

As for `COc1ccccc1NC(=O)CN(Cc1ccco1)C(=O)c1cncc(Br)c1`, the cell number change is 24.9%. Under setting [1], the AC50 is 4.61 µM [rising, full curve].
In the case of `COc1ccc(C(=O)C(=O)c2ccc(OCCO)cc2)cc1`, the cell number change is -20.9%. The AC50 under setting [1] is 0.82 µM [rising, single point].
As for `COc1ccc(CNC(=O)c2ccccc2C(=O)O)cc1`, the cell number change is -33.9%. Under setting [2], the AC50 is 32.6 µM [falling, single point]. The AC50 under setting [1] is 25.9 µM [falling, partial curve, poor fit].
On to `O=C1OC(Nc2ccc(F)c([N+](=O)[O-])c2)c2ccccc21` (stereo not given), for which the cell number change was 31.5%. The AC50 under setting [2] was 29.1 µM [rising, single point]. Also, the AC50 under setting [1] is 29.1 µM [rising, single point].
For the compound `CC(=Nc1ccc(C)cc1C)c1sc2ccccc2c1O`, the cell number change was -40.1%. Also, under setting [2], the half-maximal activity concentration (AC50) was 29.1 µM [falling, single point]. In addition, under setting [1], the AC50 is 23.1 µM [falling, single point].
Take `COc1ccc(/C=N/NC(=O)CC(=O)NCc2cccnc2)cc1[N+](=O)[O-]`: the cell number change is -18.2%. Moreover, the AC50 under setting [1] is 6.51 µM [rising, single point].
For `Cc1oc(-c2ccccc2Cl)nc1CSCC(=O)NC1CCCC1`, the cell number change turned out to be 40.8%. For the same compound, under setting [2], the AC50 is 20.6 µM [rising, single point]. For the same compound, the AC50 under setting [1] is 29.1 µM [rising, single point].
For `Cc1ccccc1CNC(=O)C1CCC(=O)N(CC2CCCCC2)C1` (stereo not given), the cell number change is 17.3%.
Still for that read-out and setting: under `CCOC(=O)C(=O)Nc1cccc(C(=O)OCC)c1` stands 1.25%.
As to `CCOC(=O)C1C(CC)NC(=S)NC1(C)O` (stereo not given), the cell number change is 14.6%. For the same compound, the AC50 under setting [2] was 6.51 µM [falling, single point].
As to `COc1cc(-c2[nH]nc3c2C(c2ccco2)C(C#N)=C(N)O3)cc(OC)c1OC` (stereo not given), the cell number change was determined as 3.84%. Under setting [1], the AC50 is 29.1 µM [falling, single point].
Consider `Cc1ccc(NC(=O)NN2CCN(C)CC2)cc1C`, for which the cell number change amounted to 12.3%. Also, under setting [1], the half-maximal activity concentration (AC50) is 6.51 µM [rising, single point].
With `COC(=O)C(Cc1ccc(O)cc1)NC(=O)C1CCN(S(=O)(=O)c2ccc(C)cc2)CC1` (stereo not given), the cell number change stood at 8.56%. For the same compound, under setting [1], the AC50 was 29.1 µM [rising, single point].
Regarding `O=C(NCc1cccnc1)C(=O)Nc1nc(C23CC4CC(CC(C4)C2)C3)cs1`, the cell number change is -28%. The AC50 under setting [1] is 9.2 µM [falling, partial curve].
On to `OCCN(Cc1ccccc1)Cc1ccc(Cl)cc1`, for which the cell number change is -38.8%. Also, under setting [2], the AC50 is 18.4 µM [falling, single point]. Besides, under setting [1], the AC50 is 0.82 µM [rising, full curve].
As for `Cc1ccc(NC(=O)c2ccc(NCCCN3CCOCC3)c([N+](=O)[O-])c2)cc1Cl`, the cell number change is 19.2%. For the same compound, under setting [1], the AC50 was 0.517 µM [rising, full curve, poor fit].
In the case of `COc1ccc(-c2nc(NC(=O)c3cc(C(C)(C)C)nn3C)sc2C)cc1`, the cell number change is -30%. For the same compound, the AC50 under setting [2] is 0.164 µM [falling, full curve]. Further, the AC50 under setting [1] was 0.206 µM [falling, full curve].
On to `Cc1ccccc1NS(=O)(=O)c1ccc(C(=O)N2CCCCCCC2)cc1`, for which the AC50 under setting [1] is 1.46 µM [rising, full curve].
`C=CCOc1ccc(Br)cc1CNC(C)(C)C`: the cell number change is -4.78%.
In the case of `CCN(C(=O)[C@@H]1CCCN1C(=O)c1cccs1)c1nc2cc(Cl)ccc2s1`, the cell number change is 3.34%. Further, the AC50 under setting [1] was 1.46 µM [rising, single point].
Turning to `O=c1cc(CN2CCN(Cc3ccccc3)CC2)c2cc(O)ccc2o1`, the cell number change worked out at 13.5%. In addition, the AC50 under setting [1] is 29.1 µM [rising, single point].
With `COc1cc(C)ccc1OCC(=O)Nc1ccc2c(c1)OCO2`, the cell number change is -13.4%. Moreover, under setting [2], the AC50 is 4.61 µM [rising, single point]. For the same compound, under setting [1], the AC50 was 4.61 µM [rising, single point].
Take `Cc1ccc(Nc2nc3nonc3[nH]c2=O)cc1`: the cell number change was -20.2%. In addition, under setting [2], the AC50 was 6.51 µM [falling, single point]. Further, the AC50 under setting [1] is 0.651 µM [falling, full curve, poor fit].
As for `CCOC(=O)C1CCCN(C(=O)c2ccccc2Oc2ccccc2)C1` (stereo not given), the cell number change was found to be 0.503%.
As to `CC(C)OCC(O)CS(=O)Cc1ccccc1` (stereo not given), the cell number change was -36.7%. Moreover, the AC50 under setting [2] is 1.3 µM [falling, partial curve, poor fit]. In addition, under setting [1], the AC50 was 25.9 µM [falling, partial curve].
On to `Cc1ccc(OCCCC(=O)Nc2ccc3c(c2)OCCO3)cc1`, for which the cell number change is -4.58%. Moreover, the AC50 under setting [1] is 6.51 µM [rising, single point].
Regarding `COc1ccccc1NC(=O)Cc1nnc(SCC(=O)Nc2ccc(F)cc2F)n1C`, the cell number change is -11.7%. Further, the AC50 under setting [1] was 0.58 µM [falling, single point].
As for `CCc1cc(/C(Cc2ccc3ccccc3n2)=N\O)c(O)cc1O`, the cell number change was -30.7%. Moreover, the half-maximal activity concentration (AC50) under setting [2] is 29.1 µM [falling, single point].
On to `N#Cc1ccc(OCC(=O)Nc2cccc(S(=O)(=O)NC3=NCCCCC3)c2)cc1`, for which the cell number change turned out to be 20.5%.
As for `CC(C)(O)C#Cc1ccc(C(=O)N2CCN(C(=O)c3ccco3)CC2)cc1`, the AC50 under setting [1] was 0.58 µM [falling, single point].
On to `COc1ccc(-c2cnn3c(N)c(S(=O)(=O)c4ccccc4)cnc23)cc1`, for which, under setting [2], the concentration at half-maximal activity (AC50) is 6.51 µM [rising, single point].
With `C/C(=N\NC(=S)NCc1ccccc1)c1ccc(Br)cc1`, the cell number change was 28%.
Take `CC(/C=C/c1ccc2c(c1)OCO2)=N/NC(=O)c1cccnc1`: the concentration at half-maximal activity (AC50) under setting [2] was 0.517 µM [rising, partial curve, poor fit] and the AC50 under setting [1] was 0.082 µM [rising, full curve].
Regarding `CC(=O)N1CCC(N(CCCOC(C)C)C(=O)Nc2ccc(C)c(C)c2)CC1`, the cell number change was found to be 5.68%. The AC50 under setting [1] is 1.84 µM [rising, full curve, poor fit].
As to `COCCN(Cc1ccco1)C(=O)C1CCCN(c2ncnc3c2nc2n3CCCCC2)C1` (stereo not given), the cell number change was -13.7%.
For `COc1ccc(NC(=O)Cn2nnc(C(=O)NCc3cccs3)c2N)cc1OC`, the cell number change is 5.37%. Moreover, the AC50 under setting [1] is 20.6 µM [rising, single point].
Take `O=S(=O)(c1ccccc1)N(C1=NCCS1)S(=O)(=O)c1ccccc1`: the cell number change worked out at 21.9%. The AC50 under setting [1] is 1.46 µM [falling, partial curve].
Take `COc1ccccc1-c1nnc(NC(C)=O)s1`: the cell number change is -13.4%. Further, under setting [2], the AC50 was 6.51 µM [rising, single point].
With `COc1ccccc1CCC(=O)OCC(=O)Nc1ccc(S(N)(=O)=O)cc1`, the cell number change came to 25.4%.
On the same count and under the same terms, for `Cc1cc(C)nc(NS(=O)(=O)c2ccc(NC(=O)C(C)C)cc2)n1` the value was 10.9%.
For `COc1ccc(-c2nc(C#N)c(N3CCN(c4ccccc4)CC3)o2)cc1`, the cell number change was determined as 7.25%. The AC50 under setting [1] is 7.31 µM [rising, partial curve, poor fit].
Take `Clc1ccccc1OCc1nnc(-c2ccccc2Br)o1`: the cell number change turned out to be 0.271%.
For `Cc1ccc(C(c2nnnn2C2CCCCC2)N(C)C2CCCCC2)cc1` (stereo not given), the cell number change was -24.5%. The AC50 under setting [2] is 0.00411 µM [falling, full curve, poor fit]. Further, the half-maximal activity concentration (AC50) under setting [1] was 0.259 µM [falling, partial curve, poor fit].
With `COc1ccc(NC(=O)CSc2nnc(-c3cccs3)n2N)c(OC)c1`, the cell number change worked out at 22%. Also, under setting [1], the AC50 is 8.2 µM [rising, partial curve].
`Cc1cccc(N2CCN(C(=O)c3cc(=O)[nH]c4ccccc34)CC2)c1C`: the AC50 under setting [2] is 0.326 µM [rising, partial curve, poor fit].
`Cc1ccc(-c2cc(-c3ccccc3Cl)c(C#N)c(N)n2)o1`: the cell number change is -0.337%. For the same compound, under setting [1], the AC50 is 11.6 µM [rising, partial curve].
For the compound `CNC(=O)CC1C(=O)N(c2ccc(F)cc2)C(=S)N1NC(=O)c1ccc(Br)cc1` (stereo not given), the cell number change was -22.2%. Besides, the AC50 under setting [2] is 4.11 µM [rising, partial curve, poor fit].
On to `COc1ccc(-c2cc(C(F)(F)F)c(C#N)c(=O)[nH]2)cc1`, for which the cell number change is 14.6%. Further, the AC50 under setting [1] was 0.116 µM [falling, full curve, poor fit].
With `COc1cccc(CNC(=O)CNC(=S)N(Cc2ccccc2)Cc2ccccc2F)c1`, the cell number change was -30.8%. Under setting [2], the AC50 was 0.164 µM [falling, full curve, poor fit]. Besides, the AC50 under setting [1] was 0.0058 µM [falling, full curve, poor fit].
Regarding `O=C(CNC(=O)c1ccc(N2C(=O)c3ccccc3C2=O)cc1)OCC(=O)c1cccc2ccccc12`, the cell number change is -23.8%. The AC50 under setting [1] is 10.3 µM [rising, partial curve].
Turning to `COc1ccc(/C=C2\Oc3cc(OCC(=O)N4CCC[C@H]4C(=O)O)ccc3C2=O)cc1OC`, the cell number change stood at 12.6%. For the same compound, under setting [1], the AC50 was 0.103 µM [rising, full curve, poor fit].
Regarding `O=C(Nc1cc(F)ccc1F)c1cccc(-n2cnnn2)c1`, the cell number change came out at 53.8%. Moreover, the AC50 under setting [2] was 20.6 µM [rising, single point].
Consider `COc1ccccc1CN(C)C(=O)COC(=O)c1cc(C)oc1C`, for which the cell number change stood at 3.2%. The AC50 under setting [2] was 0.0411 µM [falling, full curve].
As to `CCCCC(=O)Nc1ccc(Br)cc1C(=O)O`, the cell number change was 8.85%. The concentration at half-maximal activity (AC50) under setting [1] is 32.6 µM [falling, partial curve].
Consider `CSCCC(NC(=O)c1ccccc1Br)C(=O)N1CCN(C(C)=O)CC1` (stereo not given), for which the cell number change is -5.08%. Moreover, under setting [2], the AC50 is 2.91 µM [falling, single point]. Under setting [1], the AC50 is 0.82 µM [rising, full curve].
For `O=C1CC(Sc2ncccn2)C(=O)N1c1ccccc1C(F)(F)F` (stereo not given), the cell number change is -87.1%. Also, the AC50 under setting [2] was 23.1 µM [falling, single point]. For the same compound, the AC50 under setting [1] is 29.1 µM [falling, single point].
Consider `Cc1cc(C)c(S(C)(=O)=O)c(S(=O)c2ccc(Cl)cc2)n1` (stereo not given), for which the cell number change is 28.6%. Further, the AC50 under setting [1] is 29.1 µM [rising, single point].
With `O=C(Nc1ccc(F)cc1)C1CCCN(C2=NS(=O)(=O)c3ccccc32)C1` (stereo not given), the cell number change was 22.3%. Further, the AC50 under setting [2] was 6.51 µM [falling, single point]. Under setting [1], the AC50 is 6.51 µM [falling, single point].
In the case of `Cc1ccc(-n2ncc3c2CC(C)(C)CC3NC(=O)c2cc[n+]([O-])cc2)cc1` (stereo not given), the cell number change came to 40.1%. In addition, under setting [2], the AC50 was 0.517 µM [rising, full curve].
Consider `CCOc1ccc(Nc2nc(-c3cccnc3)cs2)cc1`, for which the cell number change came to 11.9%. For the same compound, the half-maximal activity concentration (AC50) under setting [1] is 29.1 µM [rising, partial curve].
